Assay results: the supplement of paper PMC10849652
Some of the results follow.

Protein sequences, listed by entry. Tags and fused reporters are not part of them. Lines headed by an entry give the natural chain unless they say otherwise; changes in a name come on top.
UniProt P60983, whole entry, looked up: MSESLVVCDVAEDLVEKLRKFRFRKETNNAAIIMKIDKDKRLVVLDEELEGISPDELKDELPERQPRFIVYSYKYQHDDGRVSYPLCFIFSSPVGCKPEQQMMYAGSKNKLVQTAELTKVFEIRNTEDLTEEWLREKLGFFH
UniProt Q86WP2: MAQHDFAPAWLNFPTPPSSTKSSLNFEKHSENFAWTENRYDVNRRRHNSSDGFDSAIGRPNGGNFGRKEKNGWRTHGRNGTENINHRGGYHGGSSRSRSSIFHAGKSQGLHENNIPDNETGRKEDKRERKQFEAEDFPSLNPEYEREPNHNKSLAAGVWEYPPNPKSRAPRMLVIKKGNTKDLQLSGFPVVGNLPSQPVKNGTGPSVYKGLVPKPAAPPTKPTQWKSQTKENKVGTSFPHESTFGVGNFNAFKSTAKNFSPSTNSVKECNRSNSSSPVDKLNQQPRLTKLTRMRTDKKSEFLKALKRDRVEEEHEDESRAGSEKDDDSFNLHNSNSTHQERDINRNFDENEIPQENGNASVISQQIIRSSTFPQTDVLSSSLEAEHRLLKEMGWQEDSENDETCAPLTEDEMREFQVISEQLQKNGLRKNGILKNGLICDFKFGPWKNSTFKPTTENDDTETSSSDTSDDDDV
UniProt P04899, whole entry, looked up: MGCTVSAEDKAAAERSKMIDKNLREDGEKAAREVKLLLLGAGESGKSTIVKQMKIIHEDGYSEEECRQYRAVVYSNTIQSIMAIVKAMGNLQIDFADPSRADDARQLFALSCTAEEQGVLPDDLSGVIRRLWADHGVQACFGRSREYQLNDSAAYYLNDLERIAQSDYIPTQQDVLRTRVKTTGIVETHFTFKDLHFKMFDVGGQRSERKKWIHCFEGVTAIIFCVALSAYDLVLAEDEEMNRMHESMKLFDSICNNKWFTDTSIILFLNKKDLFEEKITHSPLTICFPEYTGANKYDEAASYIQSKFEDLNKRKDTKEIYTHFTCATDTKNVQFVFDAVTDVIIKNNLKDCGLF
UniProt P32189: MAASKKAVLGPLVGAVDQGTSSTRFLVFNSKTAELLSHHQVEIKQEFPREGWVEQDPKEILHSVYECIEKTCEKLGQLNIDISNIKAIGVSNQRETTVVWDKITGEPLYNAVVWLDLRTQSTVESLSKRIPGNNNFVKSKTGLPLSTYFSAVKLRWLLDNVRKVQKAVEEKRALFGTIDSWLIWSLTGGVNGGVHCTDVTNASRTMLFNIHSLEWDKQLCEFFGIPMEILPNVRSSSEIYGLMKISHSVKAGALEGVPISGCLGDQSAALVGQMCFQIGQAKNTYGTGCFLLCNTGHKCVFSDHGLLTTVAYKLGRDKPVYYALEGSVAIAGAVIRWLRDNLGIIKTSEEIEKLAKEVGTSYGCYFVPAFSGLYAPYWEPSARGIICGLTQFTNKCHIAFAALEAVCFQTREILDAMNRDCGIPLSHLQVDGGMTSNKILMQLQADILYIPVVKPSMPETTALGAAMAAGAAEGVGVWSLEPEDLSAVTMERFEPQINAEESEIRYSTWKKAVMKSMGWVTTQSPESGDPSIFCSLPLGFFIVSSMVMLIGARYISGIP
UniProt Q9NU53: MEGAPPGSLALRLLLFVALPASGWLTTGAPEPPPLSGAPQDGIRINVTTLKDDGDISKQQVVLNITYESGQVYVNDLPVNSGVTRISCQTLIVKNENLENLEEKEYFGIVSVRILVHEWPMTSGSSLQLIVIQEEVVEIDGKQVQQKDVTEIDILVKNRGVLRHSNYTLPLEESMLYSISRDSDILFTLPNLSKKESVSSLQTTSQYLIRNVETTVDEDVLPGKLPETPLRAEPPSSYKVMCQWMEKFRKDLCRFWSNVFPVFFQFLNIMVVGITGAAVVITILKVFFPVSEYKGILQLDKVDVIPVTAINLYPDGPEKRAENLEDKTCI
UniProt O60234, whole entry, looked up: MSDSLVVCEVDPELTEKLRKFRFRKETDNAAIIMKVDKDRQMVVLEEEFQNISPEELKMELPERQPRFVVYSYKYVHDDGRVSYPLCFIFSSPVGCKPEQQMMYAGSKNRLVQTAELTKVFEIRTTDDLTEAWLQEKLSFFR
UniProt Q9HCN4, whole entry, looked up: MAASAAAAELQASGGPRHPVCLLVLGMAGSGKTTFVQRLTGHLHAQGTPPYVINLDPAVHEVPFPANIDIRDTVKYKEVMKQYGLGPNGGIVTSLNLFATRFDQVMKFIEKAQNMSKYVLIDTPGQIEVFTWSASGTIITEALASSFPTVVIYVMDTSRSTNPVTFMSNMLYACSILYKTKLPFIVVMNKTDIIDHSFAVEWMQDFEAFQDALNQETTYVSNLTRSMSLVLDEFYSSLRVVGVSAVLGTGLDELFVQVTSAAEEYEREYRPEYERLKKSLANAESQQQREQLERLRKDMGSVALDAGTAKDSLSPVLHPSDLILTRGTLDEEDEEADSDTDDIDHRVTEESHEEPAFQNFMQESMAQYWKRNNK
UniProt Q9HC44: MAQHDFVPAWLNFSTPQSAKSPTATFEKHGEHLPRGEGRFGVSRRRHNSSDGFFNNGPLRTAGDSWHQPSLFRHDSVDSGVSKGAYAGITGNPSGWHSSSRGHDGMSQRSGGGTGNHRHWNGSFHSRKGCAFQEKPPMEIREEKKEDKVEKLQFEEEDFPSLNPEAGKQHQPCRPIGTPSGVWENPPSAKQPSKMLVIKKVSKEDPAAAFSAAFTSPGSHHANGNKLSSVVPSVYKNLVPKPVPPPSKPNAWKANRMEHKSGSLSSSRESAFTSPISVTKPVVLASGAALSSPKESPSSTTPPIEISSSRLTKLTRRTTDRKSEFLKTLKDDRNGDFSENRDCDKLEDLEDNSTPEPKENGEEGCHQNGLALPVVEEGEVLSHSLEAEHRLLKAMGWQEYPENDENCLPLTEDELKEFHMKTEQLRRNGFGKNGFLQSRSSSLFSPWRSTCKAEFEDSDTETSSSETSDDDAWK
UniProt Q9UKJ3: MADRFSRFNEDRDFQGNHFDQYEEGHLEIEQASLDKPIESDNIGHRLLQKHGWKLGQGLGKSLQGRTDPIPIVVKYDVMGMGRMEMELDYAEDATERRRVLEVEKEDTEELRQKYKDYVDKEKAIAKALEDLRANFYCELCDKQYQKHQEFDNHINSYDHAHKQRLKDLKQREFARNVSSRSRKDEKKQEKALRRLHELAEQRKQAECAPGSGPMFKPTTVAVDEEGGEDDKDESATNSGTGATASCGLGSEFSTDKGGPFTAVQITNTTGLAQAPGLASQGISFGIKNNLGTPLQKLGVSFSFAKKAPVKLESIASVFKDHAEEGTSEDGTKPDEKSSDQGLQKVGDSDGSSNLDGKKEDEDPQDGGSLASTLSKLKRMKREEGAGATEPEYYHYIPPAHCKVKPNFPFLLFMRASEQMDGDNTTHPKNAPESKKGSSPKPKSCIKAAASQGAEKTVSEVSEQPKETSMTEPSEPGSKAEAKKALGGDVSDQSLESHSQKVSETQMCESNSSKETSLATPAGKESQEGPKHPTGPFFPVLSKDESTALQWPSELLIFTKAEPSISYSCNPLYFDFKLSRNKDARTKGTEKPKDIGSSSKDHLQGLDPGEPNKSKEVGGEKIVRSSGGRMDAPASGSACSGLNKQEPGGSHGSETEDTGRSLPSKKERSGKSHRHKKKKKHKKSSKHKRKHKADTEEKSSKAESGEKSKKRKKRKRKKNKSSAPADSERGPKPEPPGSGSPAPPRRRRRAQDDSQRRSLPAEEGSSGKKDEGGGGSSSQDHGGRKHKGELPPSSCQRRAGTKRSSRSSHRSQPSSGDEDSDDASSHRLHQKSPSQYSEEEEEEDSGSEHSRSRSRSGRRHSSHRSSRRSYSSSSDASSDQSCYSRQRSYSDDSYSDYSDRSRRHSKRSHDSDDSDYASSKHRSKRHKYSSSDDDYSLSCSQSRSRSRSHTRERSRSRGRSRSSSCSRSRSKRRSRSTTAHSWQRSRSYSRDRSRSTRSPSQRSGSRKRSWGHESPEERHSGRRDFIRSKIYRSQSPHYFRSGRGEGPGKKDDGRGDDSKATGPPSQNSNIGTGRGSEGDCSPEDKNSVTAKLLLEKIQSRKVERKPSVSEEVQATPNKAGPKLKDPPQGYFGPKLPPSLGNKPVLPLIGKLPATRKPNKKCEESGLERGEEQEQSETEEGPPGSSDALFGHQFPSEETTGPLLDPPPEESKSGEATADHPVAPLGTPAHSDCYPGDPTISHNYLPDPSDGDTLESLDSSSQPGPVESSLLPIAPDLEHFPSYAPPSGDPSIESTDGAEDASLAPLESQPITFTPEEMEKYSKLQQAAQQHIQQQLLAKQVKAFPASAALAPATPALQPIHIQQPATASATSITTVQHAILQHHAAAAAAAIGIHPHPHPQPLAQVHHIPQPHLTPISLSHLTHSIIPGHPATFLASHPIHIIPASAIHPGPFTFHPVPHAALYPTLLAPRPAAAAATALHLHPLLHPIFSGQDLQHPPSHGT
UniProt Q8TDQ7: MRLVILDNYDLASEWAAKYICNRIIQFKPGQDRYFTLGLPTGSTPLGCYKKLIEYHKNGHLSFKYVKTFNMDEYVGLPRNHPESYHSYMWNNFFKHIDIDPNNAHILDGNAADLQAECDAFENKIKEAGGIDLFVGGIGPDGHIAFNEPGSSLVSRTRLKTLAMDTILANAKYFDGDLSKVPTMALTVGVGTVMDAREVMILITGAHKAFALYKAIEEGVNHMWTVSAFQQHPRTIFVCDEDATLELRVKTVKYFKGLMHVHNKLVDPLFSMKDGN
UniProt P17174: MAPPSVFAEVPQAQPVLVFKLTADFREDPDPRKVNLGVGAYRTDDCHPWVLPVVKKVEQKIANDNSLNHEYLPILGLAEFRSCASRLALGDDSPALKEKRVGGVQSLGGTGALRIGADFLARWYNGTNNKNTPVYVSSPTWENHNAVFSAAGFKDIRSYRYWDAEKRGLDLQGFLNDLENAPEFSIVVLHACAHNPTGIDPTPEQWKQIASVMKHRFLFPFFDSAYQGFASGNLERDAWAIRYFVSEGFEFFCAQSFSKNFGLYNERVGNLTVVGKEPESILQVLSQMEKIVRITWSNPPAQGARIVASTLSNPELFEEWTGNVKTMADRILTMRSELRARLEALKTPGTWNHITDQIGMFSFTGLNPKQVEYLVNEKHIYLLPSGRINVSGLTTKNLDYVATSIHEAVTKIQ
UniProt Q96IJ6: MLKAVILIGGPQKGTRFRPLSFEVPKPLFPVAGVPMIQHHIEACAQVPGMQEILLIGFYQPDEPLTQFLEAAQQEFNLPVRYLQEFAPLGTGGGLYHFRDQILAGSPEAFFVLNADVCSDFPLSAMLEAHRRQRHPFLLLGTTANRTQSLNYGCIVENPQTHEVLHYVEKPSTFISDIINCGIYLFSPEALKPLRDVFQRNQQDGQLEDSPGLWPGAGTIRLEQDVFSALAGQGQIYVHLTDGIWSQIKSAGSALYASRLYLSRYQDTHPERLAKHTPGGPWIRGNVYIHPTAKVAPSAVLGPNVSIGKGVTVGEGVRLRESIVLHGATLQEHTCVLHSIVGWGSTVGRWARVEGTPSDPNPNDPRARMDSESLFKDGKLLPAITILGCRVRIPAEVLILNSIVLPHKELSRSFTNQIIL
UniProt Q9HAV0, whole entry, looked up: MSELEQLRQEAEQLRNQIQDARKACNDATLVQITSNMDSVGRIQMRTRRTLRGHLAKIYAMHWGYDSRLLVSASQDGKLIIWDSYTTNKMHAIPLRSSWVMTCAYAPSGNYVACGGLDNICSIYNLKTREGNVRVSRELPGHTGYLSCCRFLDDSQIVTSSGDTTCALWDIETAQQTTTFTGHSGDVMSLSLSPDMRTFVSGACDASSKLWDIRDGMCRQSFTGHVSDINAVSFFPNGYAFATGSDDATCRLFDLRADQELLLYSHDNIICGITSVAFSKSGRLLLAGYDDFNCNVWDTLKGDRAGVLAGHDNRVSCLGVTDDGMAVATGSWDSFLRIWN
UniProt Q8TBA6: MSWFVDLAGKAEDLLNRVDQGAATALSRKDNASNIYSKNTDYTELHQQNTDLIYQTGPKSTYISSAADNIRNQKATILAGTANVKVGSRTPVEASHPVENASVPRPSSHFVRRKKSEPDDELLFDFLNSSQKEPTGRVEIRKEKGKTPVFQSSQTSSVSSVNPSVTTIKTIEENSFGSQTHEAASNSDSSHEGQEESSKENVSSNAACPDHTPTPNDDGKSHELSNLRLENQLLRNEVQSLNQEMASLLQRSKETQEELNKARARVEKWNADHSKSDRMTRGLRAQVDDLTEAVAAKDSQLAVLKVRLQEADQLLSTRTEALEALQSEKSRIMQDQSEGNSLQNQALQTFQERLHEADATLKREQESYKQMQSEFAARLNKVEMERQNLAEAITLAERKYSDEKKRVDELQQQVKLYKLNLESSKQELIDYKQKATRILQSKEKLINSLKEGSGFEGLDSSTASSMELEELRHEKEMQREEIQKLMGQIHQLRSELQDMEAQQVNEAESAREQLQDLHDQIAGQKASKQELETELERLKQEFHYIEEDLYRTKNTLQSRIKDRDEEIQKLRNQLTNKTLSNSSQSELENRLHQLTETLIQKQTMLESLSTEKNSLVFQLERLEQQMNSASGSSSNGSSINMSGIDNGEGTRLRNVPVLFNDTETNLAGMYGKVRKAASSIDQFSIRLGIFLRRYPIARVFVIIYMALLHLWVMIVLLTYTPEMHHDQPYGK

Experiments:
Experiment in all cases: log2 fold change, soluble protein after heating vs DMSO (PISA); higher = thermal stabilisation; K562 cells, 10 uM, 30 min; active = over 0.2 and 3.5 SD of the protein, either way, in both replicates (recomputed)
[1] = compound: CC[C@@H]1C(=O)N(C)c2cnc(Nc3ccc(C(=O)NC4CCN(C)CC4)cc3OC)nc2N1C1CCCC1
Summary of the method: (§1)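 K562 cells at 2×10^6 cells/mL were exposed to 10 μM compound for 30 min, then aliquots were heated for 3 min across 48°C-58°C, pooled, and extracted in PBS containing 0.5% NP-40 at 4°C. The supernatant after 21,000xg for 90 min was taken as soluble protein and measured by TMTpro 16plex LC-MS/MS with channel sums equalised. Thermal stability is reported relative to control samples, with values from duplicates. Fold changes are given on a log2 scale.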

[2] = compound: CC[C@@H]1C(=O)N(C)c2cnc(Nc3ccc(C(=O)N[C@H]4CC[C@H](N5CCN(CC6CC6)CC5)CC4)cc3OC)nc2N1C(C)C [volasertib]
Summary of the method: as §1

[3] = compound: CC[C@H](C)N1C=C(C2=C(C=C(C=C21)C3=CN=C(C=C3)N4CCNCC4)C(=O)NCC5=C(C=C(NC5=O)C)C)C
Summary of the method: as §1

[4] = compound: CC[C@H](C)[C@@H](C(=O)N[C@@H]([C@@H](C)O)C(=O)N[C@@H](CC(C)C)C(=O)[C@]1(CO1)C)NC(=O)[C@H]([C@@H](C)CC)N(C)C(=O)C [epoxomicin]
Summary of the method: as §1

[5] = compound: CCn1c(C(=O)N(C2CC2)C2CC2)cc2c3c(ncn3C)c(Nc3cc(C)n(C)n3)nc21
Summary of the method: as §1

[6] = compound: CCn1cc(-c2ccnc3[nH]c(-c4cccc(CN(C)C)c4)cc23)c(-c2ccc(NC(=O)N(C)C)cc2)n1
Summary of the method: as §1

[7] = compound: CN(C)CC(=O)Nc1ccc2[nH]c(=O)c3ccccc3c2c1
Summary of the method: as §1

[8] = compound: CN(CCOC1=CC=C(C=C1)C[C@H]2C(=O)NC(=O)S2)C3=CC=CC=N3 (racemic) [rosiglitazone]
Summary of the method: as §1

[9] = compound: CN1C2=C(C3=C1C(=O)N(N=C3)CC4=CC(=CC=C4)N)SC(=C2)S(=O)C
Summary of the method: as §1

[10] = compound: CN1CCC(CNc2ccc3ncc(-c4cccc(OC(F)(F)F)c4)n3n2)CC1
Summary of the method: as §1

Measured: log2 fold change

GMFB (UniProt P60983)
inactive: [1] -0.035 | [2] 0.076 | [3] -0.005 | [4] 0.007 | [5] 0.034 | [6] 0.035 | [7] -0.021 | [8] -0.022 | [9] -0.051 | [10] 0.006

GPBP1 isoform 2 (UniProt Q86WP2)
inactive: [1] 0.001 | [2] 0.078 | [3] 0.029 | [4] 0.048 | [5] 0.028 | [6] 0.001 | [7] -0.045 | [8] 0.028 | [9] -0.007 | [10] -0.028

GMPPB isoform 2 (UniProt Q9Y5P6)
inactive: [1] 0.026 | [2] 0.01 | [3] -0.002 | [4] -0.022 | [5] 0.002 | [6] -0.066 | [7] 0.002 | [8] 0.035 | [9] -0.106 | [10] -0.031

2 consecutive records from above:
GMFB (UniProt P60983)
inactive: [1] -0.035 | [2] 0.076 | [3] -0.005 | [4] 0.007 | [5] 0.034 | [6] 0.035 | [7] -0.021 | [8] -0.022 | [9] -0.051 | [10] 0.006

GPBP1 isoform 2 (UniProt Q86WP2)
inactive: [1] 0.001 | [2] 0.078 | [3] 0.029 | [4] 0.048 | [5] 0.028 | [6] 0.001 | [7] -0.045 | [8] 0.028 | [9] -0.007 | [10] -0.028

Further results:

GRK2 (UniProt P25098)
inactive: [1] -0.025 | [2] -0.08 | [3] 0.019 | [4] 0.045 | [5] -0.006 | [6] -0.045 | [7] 0.003 | [8] 0.053 | [9] -0.051 | [10] -0.082

GNPTAB (UniProt Q3T906)
inactive: [1] 0.095 | [2] 0.092 | [3] -0.036 | [4] 0.01 | [5] 0.033 | [6] 0.045 | [7] -0.025 | [8] 0.061 | [9] 0.053 | [10] 0.073

GNAI2 isoform 4 (UniProt P04899)
inactive: [1] 0.146 | [2] 0.173 | [3] 0.017 | [4] 0.006 | [5] 0.035 | [6] 0.037 | [7] -0.04 | [8] -0.039 | [9] -0.069 | [10] 0.153

GORASP2 isoform 3 (UniProt Q9H8Y8)
inactive: [1] 0.043 | [2] -0.131 | [3] 0.07 | [4] 0.008 | [5] -0.059 | [6] 0 | [7] 0.045 | [8] 0.069 | [9] 0.017 | [10] 0.133

GMDS (UniProt O60547)
inactive: [1] 0.045 | [2] 0.017 | [3] -0.041 | [4] 0 | [5] 0.029 | [6] 0.002 | [7] -0.015 | [8] 0.011 | [9] -0.071 | [10] -0.051

GPR107 (UniProt Q5VW38)
inactive: [1] 0.095 | [2] 0.043 | [3] -0.012 | [4] -0.005 | [5] -0.047 | [6] 0.016 | [7] -0.038 | [8] 0.052 | [9] -0.025 | [10] 0.017

GK (UniProt P32189)
inactive: [1] 0.047 | [2] 0.07 | [3] -0.03 | [4] -0.023 | [5] 0.006 | [6] 0.007 | [7] -0.04 | [8] -0.015 | [9] -0.009 | [10] 0.099

GLB1L2 (UniProt Q8IW92)
inactive: [1] 0.02 | [2] -0.041 | [3] 0.057 | [4] -0.145 | [5] 0.043 | [6] 0.011 | [7] 0.055 | [8] 0.025 | [9] -0.075 | [10] -0.044

GINM1 (UniProt Q9NU53)
inactive: [1] -0.133 | [2] 0.111 | [3] -0.043 | [4] -0.017 | [5] -0.148 | [6] 0.158 | [8] -0.04 | [10] -0.082

GRSF1 (UniProt Q12849)
inactive: [1] -0.031 | [2] -0.233 | [3] 0.046 | [4] 0.143 | [5] 0.043 | [6] 0.138 | [7] 0.008 | [8] -0.037 | [9] 0.262 | [10] -0.266

GMFG (UniProt O60234)
inactive: [1] -0.111 | [2] -0.215 | [3] 0.028 | [4] 0.033 | [5] 0.009 | [6] -0.025 | [7] 0.054 | [8] 0.014 | [9] 0.004 | [10] -0.072

GPN1 isoform 5 (UniProt Q9HCN4)
inactive: [1] -0.02 | [2] 0.054 | [3] -0.065 | [4] -0.011 | [5] 0.021 | [6] -0.055 | [7] -0.002 | [8] -0.036 | [9] -0.007 | [10] -0.045

GPATCH11 (UniProt Q8N954)
inactive: [1] -0.081 | [2] -0.162 | [3] -0.017 | [4] 0.03 | [5] -0.049 | [6] 0.032 | [7] -0.049 | [8] -0.012 | [9] -0.009 | [10] -0.06

GPR108 (UniProt Q9NPR9)
inactive: [1] 0.045 | [2] 0.085 | [3] 0.055 | [4] -0.017 | [5] 0.01 | [7] -0.069 | [8] -0.001 | [9] -0.112

GINS1 (UniProt Q14691)
inactive: [1] 0.005 | [2] -0.02 | [3] 0.047 | [4] 0.051 | [5] 0.02 | [6] -0.071 | [7] -0.01 | [8] 0.007 | [9] -0.036 | [10] 0.017

GPBP1L1 (UniProt Q9HC44)
inactive: [1] -0.018 | [2] -0.006 | [3] -0.05 | [4] 0.083 | [5] 0.048 | [6] -0.094 | [7] -0.008 | [8] 0.026 | [9] 0.005 | [10] -0.001

GPATCH8 (UniProt Q9UKJ3)
inactive: [1] -0.005 | [2] -0.063 | [3] -0.047 | [4] 0.055 | [5] -0.041 | [6] 0.073 | [7] -0.03 | [8] 0.023 | [9] 0.014 | [10] 0.058

GMPS (UniProt P49915)
inactive: [1] 0.033 | [2] 0.071 | [3] 0.037 | [4] 0.04 | [5] 0.037 | [6] -0.109 | [7] 0.028 | [8] 0.066 | [9] -0.082 | [10] -0.169

GOLPH3 (UniProt Q9H4A6)
active: [10] 0.236
inactive: [1] 0.029 | [2] 0.008 | [3] 0.086 | [4] 0.084 | [6] -0.059 | [7] -0.001 | [9] -0.075

GNA11 (UniProt P29992)
inactive: [1] 0.044 | [2] -0.011 | [3] 0.013 | [4] 0.009 | [5] -0.011 | [6] -0.047 | [7] 0.074 | [8] 0.012 | [9] -0.043 | [10] 0.15

GNPDA2 (UniProt Q8TDQ7)
inactive: [1] 0.037 | [2] 0.171 | [3] -0.004 | [4] -0.103 | [5] 0.033 | [6] -0.024 | [7] -0.042 | [8] 0 | [9] -0.092 | [10] -0.009

GOT1 (UniProt P17174)
inactive: [1] 0.024 | [2] 0.071 | [3] -0.033 | [4] 0.041 | [5] 0.02 | [6] 0.01 | [7] -0.011 | [8] 0.002 | [9] -0.052 | [10] -0.035

GMPPA (UniProt Q96IJ6)
inactive: [1] -0.025 | [2] -0.031 | [3] -0.019 | [4] 0.016 | [5] -0.009 | [6] -0.045 | [7] 0.004 | [8] 0.039 | [9] -0.055 | [10] -0.01

GPI (UniProt P06744)
inactive: [1] -0.022 | [2] 0.032 | [3] 0.001 | [4] 0.012 | [5] 0.013 | [6] -0.015 | [7] -0.01 | [8] 0.022 | [9] -0.091 | [10] -0.005

GNB4 (UniProt Q9HAV0)
inactive: [1] 0.138 | [2] 0.224 | [3] -0.102 | [4] -0.07 | [5] -0.089 | [6] -0.076 | [7] -0.008 | [8] -0.064 | [9] 0.008 | [10] 0.215

GRWD1 (UniProt Q9BQ67)
inactive: [1] 0.181 | [2] 0.247 | [3] -0.035 | [4] -0.202 | [5] 0.087 | [6] -0.036 | [7] -0.099 | [8] -0.113 | [9] 0.357 | [10] 0.216

GOLGA5 (UniProt Q8TBA6)
inactive: [1] 0.019 | [2] -0.08 | [3] -0.099 | [4] 0.021 | [5] -0.022 | [6] -0.022 | [7] 0.005 | [8] 0.014 | [9] -0.023 | [10] 0.107
